# Laboratory results from patent publication US7125662B2, “Method of identifying putative antibiotic resistance genes” (priority 2000, dated 2006).
# For at least one compound, name, drawing or mass did not settle the structure.
# Tests used:
# [1] = tested on: Salmonella enteritidis serovar typhimurium strain LT2; experiment: MIC, native Salmonella strain LT2; format: cell-based
# DH5α-E/pAAC(6′)-Iaa = experiment: MIC, transgenic host expressing AAC(6′)-Iaa; format: cell-based; details: transformed into E. coli strain DH5α-E
# Method: The putative AAC(6′) aminogylcoside N6′-acetyltransferase gene from Salmonella enteritidis serovar typhimurium strain LT2, designated AAC(6′)-Iaa, was amplified by PCR and cloned into the expression vector pACSE2 (U.S. patent application Ser. No. 09/640,882 to Hall, filed Aug. 18, 2000, which is hereby incorporated by reference in its entirety). The resulting plasmid was designated pAAC(6′)-Iaa (FIG. 2A). The sequence of the AAC(6′)-Iaa coding region was determined by automated DNA sequencing and was confirmed to be identical to the sequence obtained from the incomplete genome sequence database (FIG. 2B).
# [2] = Table 2, aminoglycosides; cited from earlier work
smiles,measurement,setting,value
NC[C@H]1O[C@H](O[C@H]2[C@H](O)[C@@H](O[C@H]3O[C@H](CO)[C@@H](O)[C@H](N)[C@H]3O)[C@H](N)C[C@@H]2N)[C@H](O)[C@@H](O)[C@@H]1O [Kanamycin],sensitivity of the strain to the drug,[1],sensitive
same,resistance conferred by plasmid pAAC(6′)-Iaa,DH5α-E/pAAC(6′)-Iaa,conferred resistance
same,"Minimum Inhibitory Concentration, Clinical Resistance",[2],25 µg/mL
